The record followed here is publication PMC8661717.

This assay deals with His6-MBP-tagged SARS-CoV-2 nonstructural protein 1 (nsp1), full length (SARS-CoV-2) (UniProt P0DTD1). The assay can be described thus: pull-down; both purified.

No constants are given. Whether binding was seen depends on the method and setting.

B1: Primase heterodimer Pri1–Pri2 (complex, UniProt P49642 1-420; P49643 1-509)
chain 1: METFDPTELPELLKLYYRRLFPYSQYYRWLNYGGVIKNYFQHREFSFTLKDDIYIRYQSFNNQSDLEKEMQKMNPYKIDIGAVYSHRPNQHNTVKLGAFQAQEKELVFDIDMTDYDDVRRCCSSADICPKCWTLMTMAIRIIDRALKEDFGFKHRLWVYSGRRGVHCWVCDESVRKLSSAVRSGIVEYLSLVKGGQDVKKKVHLSEKIHPFIRKSINIIKKYFEEYALVNQDILENKESWDKILALVPETIHDELQQSFQKSHNSLQRWEHLKKVASRYQNNIKNDKYGPWLEWEIMLQYCFPRLDINVSKGINHLLKSPFSVHPKTGRISVPIDLQKVDQFDPFTVPTISFICRELDAISTNEEEKEENEAESDVKHRTRDYKKTSLAPYVKVFEHFLENLDKSRKGELLKKSDLQKDF
chain 2: MEFSGRKWRKLRLAGDQRNASYPHCLQFYLQPPSENISLIEFENLAIDRVKLLKSVENLGVSYVKGTEQYQSKLESELRKLKFSYRENLEDEYEPRRRDHISHFILRLAYCQSEELRRWFIQQEMDLLRFRFSILPKDKIQDFLKDSQLQFEAISDEEKTLREQEIVASSPSLSGLKLGFESIYKIPFADALDLFRGRKVYLEDGFAYVPLKDIVAIILNEFRAKLSKALALTARSLPAVQSDERLQPLLNHLSHSYTGQDYSTQGNVGKISLDQIDLLSTKSFPPCMRQLHKALRENHHLRHGGRMQYGLFLKGIGLTLEQALQFWKQEFIKGKMDPDKFDKGYSYNIRHSFGKEGKRTDYTPFSCLKIILSNPPSQGDYHGCPFRHSDPELLKQKLQSYKISPGGISQILDLVKGTHYQVACQKYFEMIHNVDDCGFSLNHPNQFFCESQRILNGGKDIKKEPIQPETPQPKPSVQKTKDASSALASLNSSLEMDMEGLEDYFSEDS
As to B1, the binding result is “no binding”.
